Laboratory results reported in paper PMC5224502.
No constants are given. Whether binding was seen depends on the method and setting. In cells and extracts the contact can be indirect. Some binding calls cover weakened binding; strength is not graded here. Where a sequence is shown, tags or fusion partners need not be part of it.

By UniProt entry, the sequences of proteins in these tests, tags left out.
UniProt P05412: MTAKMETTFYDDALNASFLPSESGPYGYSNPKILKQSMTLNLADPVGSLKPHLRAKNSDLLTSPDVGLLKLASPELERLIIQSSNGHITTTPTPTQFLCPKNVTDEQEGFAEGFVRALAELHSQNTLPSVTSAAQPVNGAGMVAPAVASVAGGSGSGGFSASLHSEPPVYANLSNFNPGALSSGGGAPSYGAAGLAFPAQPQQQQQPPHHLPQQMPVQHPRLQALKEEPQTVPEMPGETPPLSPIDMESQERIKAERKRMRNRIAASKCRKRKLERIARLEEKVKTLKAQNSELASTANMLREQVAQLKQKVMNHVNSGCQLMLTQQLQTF

T1: GST-HsOxs1 (human) (UniProt Q96CT7)
T1 sequence: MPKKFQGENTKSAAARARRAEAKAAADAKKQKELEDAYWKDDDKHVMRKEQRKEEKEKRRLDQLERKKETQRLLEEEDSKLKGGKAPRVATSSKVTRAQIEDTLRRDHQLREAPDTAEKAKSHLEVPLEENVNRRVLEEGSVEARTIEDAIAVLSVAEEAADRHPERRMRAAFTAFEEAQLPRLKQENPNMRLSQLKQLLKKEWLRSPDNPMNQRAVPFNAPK

B1: His-AtbZIP10 (protein, UniProt O22763 1-411)
chain: MNSIFSIDDFSDPFWETPPIPLNPDSSKPVTADEVSQSQPEWTFEMFLEEISSSAVSSEPLGNNNNAIVGVSSAQSLPSVSGQNDFEDDSRFRDRDSGNLDCAAPMTTKTVIVDSDDYRRVLKNKLETECATVVSLRVGSVKPEDSTSSPETQLQPVQSSPLTQGELGVTSSLPAEVKKTGVSMKQVTSGSSREYSDDEDLDEENETTGSLKPEDVKKSRRMLSNRESARRSRRRKQEQTSDLETQVNDLKGEHSSLLKQLSNMNHKYDEAAVGNRILKADIETLRAKVKMAEETVKRVTGMNPMLLGRSSGHNNNNRMPITGNNRMDSSSIIPAYQPHSNLNHMSNQNIGIPTILPPRLGNNFAAPPSQTSSPLQRIRNGQNHHVTPSANPYGWNTEPQNDSAWPKKCVD
B2: His-Pap1 (protein, UniProt Q01663 1-552)
chain: MSGQTETLSSTSNIPIAKAEPEQSADFSASHKKRGPVSDRSSRRTSSEEVDLMPNVDDEVDGDVKPKKIGRKNSDQEPSSKRKAQNRAAQRAFRKRKEDHLKALETQVVTLKELHSSTTLENDQLRQKVRQLEEELRILKDGSFTFEMSLPHRNPSLSSLPTTGFSSNFAHMKDGISPQSNLHLSPNSIEKPNMHQNVLHNDRSADNLNHRYQVPPTLVDSNSAQGTLSPETPSSSDSPSNLYLNYPKRKSITHLHHDCSALSNGENGEDVADGKQFCQKLSTACGSIACSMLTKTTPHRASVDILSNLHESTVSPPMADESVQRSSEVSKSIPNVELSLNVNQQFVSPFGGTDSFPLPTDTGLDSLFEPDSAIENSHLKNVVMEPELFQAWREPAESLDKEFFNDEGEIDDVFHNYFHNSNENGDLITNSLHGLDFLENANESFPEQMYPFIKHNKDYISNHPDEVPPDGLPQKGKHDTSSQMPSENEIVPAKERAYLSCPKVWSKIINHPRFESFDIDDLCSKLKNKAKCSSSGVLLDERDVEAALNQFN

target: T1, GST-HsOxs1 (human); experiment: pull-down; GST fusion from E. coli lysate bound to MagneGST beads (4°C, 4 h) and washed four times; beads incubated overnight at 4°C with E. coli lysate expressing the His fusion; wash buffer 25 mM Tris-HCl pH 7.2, 150 mM NaCl, 1 mM EDTA, 1 mM EGTA, 1% Triton X-100, 0.5% Nonidet P-40, 1 mM DTT; western blot with anti-His; only the target purified

binding, binds:
His-HscJun (from UniProt P05412 1-331), B1, B2
